We go through 24 compounds from PubChem BioAssay AID248 (DTP/NCI, 2004).

Each structure is given as a SMILES string. The list is a part of this screen's results and no random one: it gathers tests that were run many times, whatever their T/C, doses with no T/C, and many T/C values between a quarter and a half above the control. Further doses and runs are listed elsewhere. T/C gives the treated animals as a percentage of the vehicle group. Some entries give survivors of the animals treated and no T/C: the source holds a T/C of zero for them, seemingly a mark for toxic or unscored doses. Some doses without a T/C left all or most animals alive at the check, yet need not have been tolerated: the source hardly ever lists a survival T/C far under the control, and the zero likely stands for such cases as well. Survivors were counted at the toxicity check, usually on the fifth day, unless a day is given; later deaths do not show. Schedule codes are those of the source, taken here to give the interval after Q, in days (D) or hours (H), and the number of doses after X. Some entries hold several experiments; the results are listed from low to high. For survival time, this PubChem deposit counts one and a half times the control or more as active, and values a quarter to a half above the control carry no call in these data; other NCI protocols may use other cut-offs. Counts like (3×) stand for listed records that agree. Some T/C values are followed by the survivors on the day toxicity was checked, most often the fifth; where none is given, no animal had died by that day.

The assay deals with L1210 leukemia ip in BDF1 mice, survival T/C. Description: NCI In Vivo Anticancer Drug Screen. Data for tumor model L1210 Leukemia (intraperitoneal) in B6D2F1 (BDF1) mice. The conditions noted are these: T/C endpoint: mean survival time, higher T/C = longer survival.
[1] abbreviates: dose: 300.0 mg/kg/injection, schedule: Q01DX001 (ip), vehicle: saline.
Setting [2] is: dose: 200.0 mg/kg/injection, schedule: Q01DX009 (ip), vehicle: Klucel (hydroxypropylcellulose) (HPC).
Where [3] appears, read: dose: 400.0 mg/kg/injection, schedule: Q04DX003 (ip), vehicle: Klucel (hydroxypropylcellulose) (HPC).
Setting [4] is: dose: 200.0 mg/kg/injection, schedule: Q01DX001 (ip), vehicle: carboxymethylcellulose (CMC).
[5] abbreviates: dose: 100.0 mg/kg/injection, schedule: Q01DX005 (ip), vehicle: saline.
Where [6] appears, read: dose: 200.0 mg/kg/injection, schedule: Q01DX005 (ip), vehicle: saline.
The mark [7] stands for this setting: dose: 100.0 mg/kg/injection, schedule: Q01DX009 (ip), vehicle: Klucel (hydroxypropylcellulose) (HPC).
The mark [8] stands for this setting: dose: 200.0 mg/kg/injection, schedule: Q04DX003 (ip), vehicle: saline.
The mark [9] stands for this setting: dose: 400.0 mg/kg/injection, schedule: Q01DX009 (ip), vehicle: Klucel (hydroxypropylcellulose) (HPC).
Where [10] appears, read: dose: 400.0 mg/kg/injection, schedule: Q01DX009 (ip), vehicle: saline with Tween-80.
The mark [11] stands for this setting: dose: 25.0 mg/kg/injection, schedule: Q01DX009 (ip), vehicle: saline with Tween-80.
Setting [12] is: dose: 50.0 mg/kg/injection, schedule: Q01DX009 (ip), vehicle: saline with Tween-80.
Setting [13] is: dose: 100.0 mg/kg/injection, schedule: Q01DX009 (ip), vehicle: saline with Tween-80.
The mark [14] stands for this setting: dose: 200.0 mg/kg/injection, schedule: Q01DX009 (ip), vehicle: saline with Tween-80.
Setting [15] is: dose: 400.0 mg/kg/injection, schedule: Q04DX003 (ip), vehicle: saline.

On to `Cc1n[nH]c(C)c1N=NN1CCOCC1`, for which the survivor count was 2 of 6 (dose: 10.0 mg/kg/injection, schedule: Q01DX001 (ip), vehicle: saline); 1 of 6 (dose: 20.0 mg/kg/injection, schedule: Q01DX001 (ip), vehicle: saline); 0 of 6 (dose: 30.0 mg/kg/injection, schedule: Q01DX001 (ip), vehicle: saline); 0 of 6 (dose: 40.0 mg/kg/injection, schedule: Q01DX001 (ip), vehicle: saline); 0 of 6 (dose: 75.0 mg/kg/injection, schedule: Q01DX001 (ip), vehicle: saline); 0 of 6 (dose: 150.0 mg/kg/injection, schedule: Q01DX001 (ip), vehicle: saline). The survivor count under setting [1] is listed as 0 of 6.
Regarding `SCc1ccccn1`, the survivor count reads like this: (dose: 600.0 mg/kg/injection, schedule: Q01DX015 (ip), vehicle: saline) 0 of 6; (dose: 900.0 mg/kg/injection, schedule: Q01DX015 (ip), vehicle: saline) 0 of 6.
On to `Cc1c(C(=O)CCl)c(=O)n(-c2ccccc2)n1C`, for which the survivor count runs as follows: under setting [2], 3 of 6; under setting [3], 1 of 6.
Regarding `O=[N+]([O-])c1ccc(C2ON2C2CCCCC2)cc1` (configuration not stated), the survivor count under setting [4] is on record as 6 of 6.
As to `O=[N+]([O-])c1ccc(C[Se]c2ncnc3c(C4OC(CO)C(O)C4O)[nH]nc23)cc1` (configuration not stated), the survivor count runs as follows: under setting [5], 0 of 6; under setting [6], 0 of 6.
Consider `O=[N+]([O-])c1cc([N+](=O)[O-])c(Cl)cc1Cl`, for which the survivor count is on record as 2 of 6 (dose: 25.0 mg/kg/injection, schedule: Q01DX009 (ip), vehicle: Klucel (hydroxypropylcellulose) (HPC)); 1 of 6 (dose: 50.0 mg/kg/injection, schedule: Q01DX009 (ip), vehicle: Klucel (hydroxypropylcellulose) (HPC)); 0 of 6 under setting [7]; 0 of 6 under setting [2]; 5 of 6 under setting [3].
Regarding `NCc1cn(C2OC(CO)C(O)C2O)c2ncnc(N)c12` (configuration not stated), the survivor count runs as follows: (dose: 6.25 mg/kg/injection, schedule: Q01DX009 (ip), vehicle: saline) 6 of 6; (dose: 12.5 mg/kg/injection, schedule: Q01DX005 (ip), vehicle: saline) 2 of 6; under setting [5], 0 of 6; under setting [6], 0 of 6.
On to `O=C(O)C(O)COc1ccc(Cl)cc1Cl` (configuration not stated), for which the survivor count under setting [8] is listed as 3 of 6.
Turning to `O=[N+]([O-])/C=C/c1ccc([N+](=O)[O-])o1`, the survivor count by setting is: (dose: 25.0 mg/kg/injection, schedule: Q01DX001 (ip), vehicle: Klucel (hydroxypropylcellulose) (HPC)) 0 of 6; (dose: 50.0 mg/kg/injection, schedule: Q01DX001 (ip), vehicle: Klucel (hydroxypropylcellulose) (HPC)) 0 of 6.
As to `O=C/C=C\c1ccccc1O`, where the note is “dose: 400.0 mg/kg/injection, schedule: Q01DX001 (ip), vehicle: saline”, the survivor count is reported as 0 of 6.
Turning to `Cc1ccc(NC(=O)N2CC2)cc1NC(=O)N1CC1`, the survivor count runs as follows: under setting [7], 0 of 6; under setting [2], 0 of 6; under setting [9], 0 of 6.
Consider `CCOC(=O)c1ccc(N=CNc2ccc(C(=O)OCC)cc2)cc1`, for which the survivor count is, setting by setting: (dose: 100.0 mg/kg/injection, schedule: Q01DX001 (ip), vehicle: other) 6 of 6; (dose: 200.0 mg/kg/injection, schedule: Q01DX001 (ip), vehicle: other) 6 of 6; (dose: 400.0 mg/kg/injection, schedule: Q01DX001 (ip), vehicle: other) 6 of 6.
On to `COc1cc2cc3c4ccccc4cc[n+]3c(C)c2cc1OC` (tested in a mixture with another compound), for which the survivor count (dose: 80.0 mg/kg/injection, schedule: Q01DX009 (ip), vehicle: saline) was 4 of 6.
Regarding `CCCCCCCCCCCCCC(=O)[O][Hg][c]1ccccc1`, the survivor count (dose: 150.0 mg/kg/injection, schedule: Q01DX001 (ip), vehicle: steroid suspending solution) is recorded as 0 of 6 and the survivor count (dose: 300.0 mg/kg/injection, schedule: Q01DX001 (ip), vehicle: steroid suspending solution) was 0 of 6.
With `COc1ccc(/C(N=Nc2ccccc2)=N/N=C(N)N)cc1`, the survivor count by setting is: (dose: 100.0 mg/kg/injection, schedule: Q01DX001 (ip), vehicle: steroid suspending solution) 3 of 6; (dose: 200.0 mg/kg/injection, schedule: Q01DX001 (ip), vehicle: steroid suspending solution) 1 of 6; (dose: 400.0 mg/kg/injection, schedule: Q01DX001 (ip), vehicle: steroid suspending solution) 2 of 6.
For `COc1cc(N(CCCl)CCCl)c(OC)cc1/C=N/NC(=O)CC(N)C(=O)O` (configuration not stated), the T/C is, setting by setting: (dose: 18.75 mg/kg/injection, schedule: Q01DX009 (ip), vehicle: saline) 143 % of control; (dose: 50.0 mg/kg/injection, schedule: Q01DX009 (ip), vehicle: other) 127 % of control; under setting [4], 129 % of control; (dose: 200.0 mg/kg/injection, schedule: Q01DX009 (ip), vehicle: other) 128 % of control [5 of 6 alive]; under setting [1], 128 % of control; (dose: 400.0 mg/kg/injection, schedule: Q01DX001 (ip), vehicle: carboxymethylcellulose (CMC)) 138 % of control. Also, the survivor count (dose: 400.0 mg/kg/injection, schedule: Q01DX009 (ip), vehicle: other) is given as 0 of 6.
For `CCCC(=O)Nc1cc(C)ccc1N=Nc1ccc(C)cc1`, the survivor count is 6 of 6 under setting [10] and 6 of 6 (dose: 400.0 mg/kg/injection, schedule: Q04DX002 (ip), vehicle: saline with Tween-80).
Regarding `CSC(=O)C(C)(C)C`, the survivor count under setting [1] is 1 of 6.
With `O=C(/C=C/c1ccccc1)NC(=S)Nc1ccccc1C(F)(F)F`, the T/C reads like this: under setting [11], 87, 96, 100 % of control; under setting [12], 87, 90, 91 % of control; under setting [13], 90, 90 [2 of 3 alive], 91, 95, 96 % of control; under setting [14], 89 % of control (2×). In addition, the survivor count runs as follows: under setting [11], 3 of 3; under setting [12], 2 of 3; under setting [13], 6 of 6; (dose: 100.0 mg/kg/injection, schedule: Q04DX002 (ip), vehicle: saline with Tween-80) 3 of 3; under setting [14], 2 of 3 and 5 of 6; under setting [10], 0 of 3.
For the compound `CC(=NCC(=O)O)c1ccccc1`, the survivor count is given as 0 of 6 under setting [8] and 0 of 6 under setting [15].
Regarding `CCCCCCCCCCCCCCCC(=O)N(CCCCN(C)C)CCCCN(C)C`, the survivor count is, setting by setting: (dose: 8.0 mg/kg/injection, schedule: Q01DX009 (ip), vehicle: carboxymethylcellulose (CMC)) 5 of 6; (dose: 10.0 mg/kg/injection, schedule: Q01DX009 (ip), vehicle: carboxymethylcellulose (CMC)) 3 of 6; (dose: 12.0 mg/kg/injection, schedule: Q01DX009 (ip), vehicle: carboxymethylcellulose (CMC)) 3 of 6.
Turning to `O=C(O)c1c(Br)c(Br)c(Br)c(Br)c1C(=O)Nc1ccccc1F`, the survivor count under setting [9] is 0 of 6.
In the case of `CCOC(=O)c1cc(N)c[nH]1`, the survivor count under setting [15] is 6 of 6.
On to `O=[N+]([O-])c1cc([N+](=O)[O-])c2sc3ccccc3c2c1`, for which the survivor count (dose: 200.0 mg/kg/injection, schedule: Q04DX002 (ip), vehicle: saline with Tween-80) is 3 of 3.
